Taken from: PubChem BioAssay AID504791 (Drosophila RNAi Screening Center, 2011)
Screen: 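Factors in Argonaute-based small RNA production and activity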 (primary screen). Cell system: Drosophila S2-derived reporter cells. Knock-down reagent: long dsRNA against Drosophila genes, about 150-250 ng dsRNA per well (siRNA assay); about 80-120 ng (miRNA assay). Duration: about 5 days (siRNA assay); about 4 days (miRNA assay). Challenge: copper sulfate induction of reporters: 25 µM (siRNA assay); 200 mM stated (miRNA assay), 1-2 days before reading. Measurement: 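Dual luciferase assay: Renilla to firefly signal ratio in each well, scaled to the mean ratio of its plate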. Call rule: 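a well was a first-pass pick when its plate-scaled ratio rose above 1.5 (siRNA assay) or 1.6 (miRNA assay), or dropped below 0.6; a gene counted only if two separate dsRNAs agreed on retest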.
The deposit covers about 23,000 reagents; shown is a random part of those with a known target gene and a result. Of all reagents, 199 (0.86%) were called active. 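Plate-scaled ratios behind the calls are not deposited; printed light signals are raw; many rows marked increased or decreased are still called inactive.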 Further read-outs or replicates are left out here. Not stated in the record: the direction of the score.

no.	gene	dsRNA	stable siRNA reporter change	miRNA reporter change	stable assay Renilla, run 1 (luminescence)	activity call
1	CG32485	DRSC22666			4203	inactive
2	CG6472	DRSC06989			6883	inactive
3	bbc	DRSC06958			4815	inactive
4	bbc	DRSC22309			9894	inactive
5	CG7737	DRSC07033			8607	inactive
6	CG33143	DRSC04151			5475	inactive
7	CG33143	DRSC04454			6286	inactive
8	CG17145	DRSC10247			7460	inactive
9	Dnaaf4	DRSC02405			6466	inactive
10	CG7564	DRSC10880			11208	inactive
11	JMJD4	DRSC03025			6128	inactive
12	Spn43Ad	DRSC06770			6986	inactive
13	CG9541	DRSC03257			6751	inactive
14	CG30281	DRSC04528			21834	inactive
15	CG18178	DRSC10302			9414	inactive
16	MESK2	DRSC04258			9263	inactive
17	CG5412	DRSC15796			7929	inactive
18	CG17364	DRSC10269			8097	inactive
19	CG17364	DRSC10270			3564	inactive
20	CG17364	DRSC22689			4683	inactive
21	CG30391	DRSC21572			9969	inactive
22	shd	DRSC11129			7235	inactive
23	CG10508	DRSC11612			9429	inactive
24	CG10508	DRSC11613			6922	inactive
25	egh	DRSC18771			9339	inactive
26	CG15615	DRSC06568			6810	inactive
27	CG12078	DRSC08242			4995	inactive
28	CG6567	DRSC16066			6795	inactive
29	Mcm2	DRSC16734			5744	inactive
30	Nazo	DRSC14343			6083	inactive
31	hiro	DRSC08564		reporter ratio lowered past the hit cutoff	10831	inactive
32	Alg2	DRSC08298			9030	inactive
33	Arl1	DRSC09667			7531	inactive
34	CG17660	DRSC00513			3.84e5	inactive
35	E(spl)m5-HLH	DRSC16695			7506	inactive
36	CG15044	DRSC19620			5179	inactive
37	CG15044	DRSC21385			9232	inactive
38	Tsr1	DRSC11821			8902	inactive
39	ftz	DRSC12626			7314	inactive
40	CG15445	DRSC20517			9975	inactive
41	CG31635	DRSC02273			12536	inactive
42	CG31635	DRSC02274	reporter ratio raised past the hit cutoff		8153	inactive
43	CG5783	DRSC02894			8395	inactive
44	CG13108	DRSC02206			7919	inactive
45	jing	DRSC04923			6195	inactive
46	jing	DRSC04927	reporter ratio raised past the hit cutoff		6496	inactive
47	jing	DRSC05000			12419	inactive
48	CG32507	DRSC20421			4615	inactive
49	sing	DRSC19530			6191	inactive
50	CAH14	DRSC04234			6299	inactive
51	CAH14	DRSC22160			8995	inactive
52	CG10474	DRSC05993			6582	inactive
53	jus	DRSC14861		reporter ratio lowered past the hit cutoff	5214	inactive
54	jus	DRSC14862			6351	inactive
55	jus	DRSC23018			4459	inactive
56	CG42700	DRSC06292			5119	inactive
57	CG42700	DRSC06293			7134	inactive
58	CG42700	DRSC23109			3508	inactive
